Measurements: paper PMC5914118 (Contrast Media & Molecular Imaging, 2018)

Experiment: general procedure: Fmoc solid-phase peptide synthesis; Rink amide MBHA; HATU/HOAt
Details: whole synthesis, scale 62.5 µmol

Substance: [3-MP^0-D-Glu^1,desGlu^2-6]-Ala-Tyr-Gly-Trp-Met-Asp-Phe-NH2
- isolated mass: 37.6 mg
- isolated yield: 54%
